Results are given in words; binding and its absence hold for the method and conditions named. For part of these data: Binding seen in cells or lysates may run through a third protein. Some results given as binding are weak or reduced against the parent protein; the word gives no strength. For part of these data: Sequences can lack the tags named with a protein. Values belong to the substance of their own block, whether it stands above or below them.
What was measured:
[1] = molecular target: ASPM (abnormal spindle-like, microcephaly-associated protein), endogenous (human (endogenous in human fetal kidney tissue)) (UniProt Q8IZT6); experiment: co-IP; endogenous proteins in human fetal kidney tissue lysate (1 mg, pre-cleared); primary antibody 3 hr at 4°C, protein-A/G agarose beads; IP buffer 20 mM HEPES pH 7.5, 150 mM NaCl, 1 mM EDTA, 0.5% NP-40; Western blot
[2] = molecular target: T1, C-terminal region of ASPM (CTR), amino acids 3,276–3,477, fused to the GAL4 DNA-binding domain (pGBKT7-CTR) (human) (UniProt Q8IZT6); experiment: two-hybrid; … GAL4 Two-Hybrid System 3, S. cerevisiae AH109; growth on quadruple dropout medium (SD/-His/-Ade/-Leu/-Trp) and blue colour on X-α-gal plates (MEL1 reporter), 30°C, 3 to 4 days; bait in pGBKT7 (DNA-BD), prey in pACT2 (AD)
T1 sequence: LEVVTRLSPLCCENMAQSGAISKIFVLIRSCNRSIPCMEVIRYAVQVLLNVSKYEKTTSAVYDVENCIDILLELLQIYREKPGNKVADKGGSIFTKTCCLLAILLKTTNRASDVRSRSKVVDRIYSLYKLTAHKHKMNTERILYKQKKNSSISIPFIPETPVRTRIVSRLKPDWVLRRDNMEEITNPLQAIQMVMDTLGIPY

Chains of the proteins cited; added tags and fusions are not shown. Lines headed by an entry give the natural chain unless they say otherwise; changes in a name come on top.
UniProt Q05086: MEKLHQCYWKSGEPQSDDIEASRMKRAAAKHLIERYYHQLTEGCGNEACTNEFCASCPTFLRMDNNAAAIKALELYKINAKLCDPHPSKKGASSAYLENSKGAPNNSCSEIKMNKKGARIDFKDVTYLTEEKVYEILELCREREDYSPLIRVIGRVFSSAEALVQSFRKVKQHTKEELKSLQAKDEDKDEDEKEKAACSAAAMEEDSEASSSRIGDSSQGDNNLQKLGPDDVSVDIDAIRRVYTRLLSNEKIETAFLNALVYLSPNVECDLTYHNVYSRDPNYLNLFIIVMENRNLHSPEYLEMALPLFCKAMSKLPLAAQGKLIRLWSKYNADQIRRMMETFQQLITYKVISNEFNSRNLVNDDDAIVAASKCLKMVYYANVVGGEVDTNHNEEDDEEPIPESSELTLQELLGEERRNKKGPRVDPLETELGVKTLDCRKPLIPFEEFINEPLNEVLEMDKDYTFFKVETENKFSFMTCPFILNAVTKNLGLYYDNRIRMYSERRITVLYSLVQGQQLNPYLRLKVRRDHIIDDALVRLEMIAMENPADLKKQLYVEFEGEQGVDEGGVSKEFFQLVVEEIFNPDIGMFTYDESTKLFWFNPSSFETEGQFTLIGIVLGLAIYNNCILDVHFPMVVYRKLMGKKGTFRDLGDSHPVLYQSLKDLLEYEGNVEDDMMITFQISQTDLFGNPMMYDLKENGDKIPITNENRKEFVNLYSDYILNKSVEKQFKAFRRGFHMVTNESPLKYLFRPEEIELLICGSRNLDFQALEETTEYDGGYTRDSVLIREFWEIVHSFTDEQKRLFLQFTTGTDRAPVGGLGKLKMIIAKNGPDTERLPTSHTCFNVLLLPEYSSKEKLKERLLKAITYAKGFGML

[3] = molecular target: UBE3A (ubiquitin protein ligase E3A), endogenous (human (endogenous in human fetal kidney tissue)) (UniProt Q05086); experiment: co-IP; endogenous proteins in human fetal kidney tissue lysate (1 mg, pre-cleared); primary antibody 3 hr at 4°C, protein-A/G agarose beads; IP buffer 20 mM HEPES pH 7.5, 150 mM NaCl, 1 mM EDTA, 0.5% NP-40; Western blot

binding [1]: binds
Substance: UBE3A (ubiquitin protein ligase E3A), endogenous (from UniProt Q05086 1-875)

binding [2]: binds
Substance: UBE3A fragment, amino acids 639–875, fused to the GAL4 activation domain (pACT2-UBE3A) (from UniProt Q05086 639-875) (domain or fragment)

binding [3]: binds
Substance: ASPM (abnormal spindle-like, microcephaly-associated protein), endogenous (from UniProt Q8IZT6 1-3477)
